These are yes or no findings as the source states them, for the method shown. Binding seen in cells or lysates may run through a third protein. These calls come from enrichment with a bait or labelling near it, and not all partners need be listed. Where a sequence is shown, tags or fusion partners need not be part of it.
Target: T1, Flag-USP17LA (mouse) (UniProt Q61068)
T1 sequence: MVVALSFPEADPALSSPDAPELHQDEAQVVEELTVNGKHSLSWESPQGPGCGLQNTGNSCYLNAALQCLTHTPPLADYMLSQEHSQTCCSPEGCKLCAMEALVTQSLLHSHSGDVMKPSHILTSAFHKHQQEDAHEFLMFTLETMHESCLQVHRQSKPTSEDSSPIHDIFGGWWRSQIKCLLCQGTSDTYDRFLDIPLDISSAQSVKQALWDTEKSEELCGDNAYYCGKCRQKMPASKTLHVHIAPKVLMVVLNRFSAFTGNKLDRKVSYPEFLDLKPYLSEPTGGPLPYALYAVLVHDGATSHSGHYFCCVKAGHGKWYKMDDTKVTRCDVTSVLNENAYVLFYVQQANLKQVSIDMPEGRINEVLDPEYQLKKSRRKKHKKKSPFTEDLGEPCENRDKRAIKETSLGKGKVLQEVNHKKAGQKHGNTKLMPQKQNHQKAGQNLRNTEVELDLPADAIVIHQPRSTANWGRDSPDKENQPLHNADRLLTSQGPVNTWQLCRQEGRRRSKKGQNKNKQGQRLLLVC
Assay: affinity purification with mass spectrometry; Flag-USP17LA from transfected HEK293T cells; NP-40 lysis buffer; anti-Flag M2 magnetic beads 2-4 h at 4 °C; elution with 3x FLAG peptide; silver staining, semiquantitative mass spectrometry; hits with a USP17LA-to-vector ratio above 2 or found only with USP17LA

Protein sequences, listed by entry. Tags and fused reporters are not part of them.
UniProt P35579: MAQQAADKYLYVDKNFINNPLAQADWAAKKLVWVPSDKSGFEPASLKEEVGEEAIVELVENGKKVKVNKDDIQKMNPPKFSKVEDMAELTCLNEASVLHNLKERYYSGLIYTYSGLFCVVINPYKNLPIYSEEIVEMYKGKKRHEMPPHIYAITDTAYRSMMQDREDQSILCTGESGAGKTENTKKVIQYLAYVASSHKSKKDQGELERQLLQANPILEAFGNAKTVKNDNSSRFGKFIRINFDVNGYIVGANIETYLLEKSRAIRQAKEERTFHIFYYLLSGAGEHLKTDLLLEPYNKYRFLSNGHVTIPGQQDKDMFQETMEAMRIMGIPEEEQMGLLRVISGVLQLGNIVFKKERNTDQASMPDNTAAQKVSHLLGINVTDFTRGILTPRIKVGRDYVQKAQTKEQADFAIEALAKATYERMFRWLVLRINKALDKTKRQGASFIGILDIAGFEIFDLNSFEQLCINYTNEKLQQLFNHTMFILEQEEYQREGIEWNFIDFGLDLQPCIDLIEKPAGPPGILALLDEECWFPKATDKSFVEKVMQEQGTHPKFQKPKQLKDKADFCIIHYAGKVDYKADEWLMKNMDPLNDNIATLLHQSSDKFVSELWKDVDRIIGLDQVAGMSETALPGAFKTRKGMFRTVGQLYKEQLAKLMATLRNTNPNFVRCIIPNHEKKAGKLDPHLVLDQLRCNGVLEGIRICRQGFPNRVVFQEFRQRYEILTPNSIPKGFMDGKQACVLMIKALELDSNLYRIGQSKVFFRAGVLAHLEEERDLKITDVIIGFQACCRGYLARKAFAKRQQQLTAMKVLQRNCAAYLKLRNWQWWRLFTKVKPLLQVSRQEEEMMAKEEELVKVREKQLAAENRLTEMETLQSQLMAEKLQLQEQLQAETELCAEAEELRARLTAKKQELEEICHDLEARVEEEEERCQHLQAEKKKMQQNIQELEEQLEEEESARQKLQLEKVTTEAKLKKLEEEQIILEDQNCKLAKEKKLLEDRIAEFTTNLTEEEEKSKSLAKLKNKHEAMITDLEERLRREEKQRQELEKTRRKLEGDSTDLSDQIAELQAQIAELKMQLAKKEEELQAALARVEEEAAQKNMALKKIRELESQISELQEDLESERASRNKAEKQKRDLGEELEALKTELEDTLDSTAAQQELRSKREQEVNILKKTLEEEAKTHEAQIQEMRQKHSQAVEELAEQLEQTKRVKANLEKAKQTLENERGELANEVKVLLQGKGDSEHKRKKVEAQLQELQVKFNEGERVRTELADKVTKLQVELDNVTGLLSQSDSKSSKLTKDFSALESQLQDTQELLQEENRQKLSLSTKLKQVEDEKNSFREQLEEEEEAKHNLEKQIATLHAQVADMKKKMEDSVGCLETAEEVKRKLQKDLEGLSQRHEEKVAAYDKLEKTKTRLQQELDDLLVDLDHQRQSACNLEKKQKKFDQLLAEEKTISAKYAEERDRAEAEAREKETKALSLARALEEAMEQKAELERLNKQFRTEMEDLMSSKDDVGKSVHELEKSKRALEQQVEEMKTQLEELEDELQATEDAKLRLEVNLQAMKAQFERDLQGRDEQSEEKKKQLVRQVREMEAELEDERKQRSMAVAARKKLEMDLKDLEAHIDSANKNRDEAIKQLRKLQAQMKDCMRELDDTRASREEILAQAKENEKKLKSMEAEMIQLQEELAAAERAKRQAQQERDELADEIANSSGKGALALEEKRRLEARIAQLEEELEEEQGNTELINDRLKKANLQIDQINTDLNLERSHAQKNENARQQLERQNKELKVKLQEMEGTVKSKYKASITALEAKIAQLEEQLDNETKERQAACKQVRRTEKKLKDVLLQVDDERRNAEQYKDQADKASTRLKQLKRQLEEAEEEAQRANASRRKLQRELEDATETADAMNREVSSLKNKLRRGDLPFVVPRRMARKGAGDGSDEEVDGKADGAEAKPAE

MYH9 (from UniProt P35579 1-1960)
binding: binds

Reference: article PMC12592519
